The exact form of at least one protein or probe is not confirmed.
Target: cardiac troponin I (cTnI) (Homo sapiens) (UniProt P19429)
Test: SPR
Settings: Ni-NTA chip, protein immobilized (200 nM), aptamer 25-200 nM; purified recombinant protein; single-stranded DNA

| Sequence | Kd [nM] |
| --- | --- |
| CGCATGCCAAACGTTGCCTCATAGTTCCCTCCCCGTGTCC [aptamer SEQ ID NO: 6] | 0.317 |
| TCACACCCTCCCTCCCACATACCGCATACACTTTCTGATT [aptamer SEQ ID NO: 1] | 3.41 |
| CCCGACCACGTCCCTGCCCTTTCCTAACCTGTTTGTTGAT [aptamer SEQ ID NO: 2] | 1.13 |
| CGTGCAGTACGCCAACCTTTCTCATGCGCTGCCCCTCTTA [aptamer SEQ ID NO: 5] | 0.27 |
| ATGCGTTGAACCCTCCTGACCGTTTATCACATACTCCAGA [aptamer SEQ ID NO: 3] | 1.14 |
| CAACTGTAATGTACCCTCCTCGATCACGCACCACTTGCAT [aptamer SEQ ID NO: 4] | 3.25 |

Source: patent publication US20120316326A1
